Measured values taken from US4642332A, “Effective hormonal peptides: D-3-Pal^6 -LHRH” (The Board of Regents, The University of Texas System, priority 1985, dated 1987).
Part of at least one peptide drawing is inferred or uncertain, most often the ends.

Experiments:
[1] = test system: LHRH receptor; test: Radioreceptor assay; type: binding; conditions: statement in words on Table III
[2] = test system: pituitary cells from 21 day old rats; test: In vitro pituitary incubate assay (release of LH and FSH); type: cell-based, rat; conditions: for FSH released into medium (ng/ml) ± SEM / LH ng/ml medium ± SEM / FSH ng/ml medium ± SEM: mean of 9
Method: The data in Tables IV and V are from the in vitro assay of the peptides with the pituitary incubate. This assay measures the release of LH and FSH in an in vitro system with pituitary cells from 21 day old rats. See, Bowers, C. Y. et al. on the inhibitory effects of leutinizing hormone releasing hormone analogs. Endocrinology, 106: 674 (1980).
The abbreviations are as follows: sc-subcutaneous, SEM-standard error of the mean; NS-not significant; ng-nanogram, and ml-milliliter. The p value represents the population coefficient .rho.(rho) which signifies whether a sample coefficient is significant or a chance deviation from zero.

[3] = test system: 21 day old female rats; test: In vivo assay in rats for release of LH and FSH; parameters: species or system rat; conditions: for Serum FSH ng/ml SEM / Serum LH ng/ml SEM: Table IX, blood sample at ±60 minutes, mean of 6; for LH ng/ml Serum ± SEM ± 15 min / LH ng/ml Serum ± SEM ± 60 min: Table VII; for Serum FSH ng/ml ± SEM / Serum LH ng/ml ± SEM: Table VIII, ±60 min after injection, mean of 5-6
Method: In vivo rat assay performed by a modification of the method of Bowers, C. Y. et al. Endocrinology, 106, 674 (1980). 21 day old female rats were injected sc with saline or peptide. Blood samples for the RIAs of LH and FSH were collected at +15, +60, +120, or +180 minutes. (Tables VI-XI).

[4] = Table IV, dosage 0.03 ng/ml medium
[5] = Table IV, dosage 0.1 ng/ml medium
[6] = Table IV, dosage 0.3 ng/ml medium
[7] = Table V, dosage .01 ng/ml medium
[8] = Table V, dosage .03 ng/ml medium
[9] = Table V, dosage .10 ng/ml medium
[10] = at 0.1 ng, statement on Table IV
[11] = dosage 10 mg/rat sc (so in the source)
[12] = dosage 100 mg/rat sc (so in the source)
[13] = Table XI, 150 ng sc, +2 hrs, mean 5-6
[14] = Table XI, 150 ng sc, +3 hrs, mean 5-6

CC(C)C[C@H](NC(=O)[C@@H](Cc1cnc2ccccc2c1)NC(=O)[C@H](Cc1ccc(O)cc1)NC(=O)[C@H](CO)NC(=O)[C@H](Cc1c[nH]c2ccccc12)NC(=O)[C@H](Cc1c[nH]cn1)NC(=O)[C@@H]1CCC(=O)N1)C(=O)N[C@@H](CCCNC(=N)N)C(=O)N1CCC[C@H]1C(=O)NCC(N)=O [D-Qal^6 -LHRH, pyroGlu-His-Trp-Ser-Tyr-D-3-Qal-Leu-Arg-Pro-GlyNH2]
potency of binding at a receptor compared with LHRH [1]: substantially more effective than LHRH itself
potency of binding at a receptor compared with the three known super agonists [1]: comparable with the three known super agonists
FSH released into medium (ng/ml) ± SEM [2, 4]: 994 ± 181
LH ng/ml medium ± SEM [2, 4]: 47 ± 22 ng/mL
FSH released into medium (ng/ml) ± SEM [2, 5]: 3364 ± 364
LH ng/ml medium ± SEM [2, 5]: 335 ± 37 ng/mL
FSH released into medium (ng/ml) ± SEM [2, 6]: 5069 ± 751
LH ng/ml medium ± SEM [2, 6]: 611 ± 102 ng/mL
FSH ng/ml medium ± SEM [2, 7]: 625 ± 238 ng/mL
LH ng/ml medium ± SEM [2, 7]: 104 ± 79 ng/mL
FSH ng/ml medium ± SEM [2, 8]: 638 ± 77 ng/mL
LH ng/ml medium ± SEM [2, 8]: 79 ± 30 ng/mL
FSH ng/ml medium ± SEM [2, 9]: 1890 ± 135 ng/mL
LH ng/ml medium ± SEM [2, 9]: 647 ± 39 ng/mL
activity for the release of LH, D-Pal^6 -LHRH compared with D-Qal^6 -LHRH [2, 10]: essentially equivalent
release of FSH, D-Pal^6 -LHRH compared with D-Qal^6 -LHRH [2, 10]: same essential equivalents
potency, D-Qal^6 -LHRH compared with D-Trp^6 -LHRH ([2]; comparable assays, statement in words): essentially equipotent
Serum FSH ng/ml SEM ([3]; 50 ng/rat sc): 1273 ± 279 ng/mL
Serum LH ng/ml SEM ([3]; 50 ng/rat sc): 71 ± 8 ng/mL
Serum FSH ng/ml SEM ([3]; 150 ng/rat sc): 3472 ± 538 ng/mL
Serum LH ng/ml SEM ([3]; 150 ng/rat sc): 151 ± 17 ng/mL
LH ng/ml Serum ± SEM ± 15 min [3, 11]: 10.5 ± 2 ng/mL
LH ng/ml Serum ± SEM ± 60 min [3, 11]: 49 ± 14 ng/mL
LH ng/ml Serum ± SEM ± 15 min [3, 12]: 37 ± 5 ng/mL
LH ng/ml Serum ± SEM ± 60 min [3, 12]: 226 ± 36 ng/mL
Serum FSH ng/ml ± SEM ([3]; 15 ng/rat sc): 3610 ± 363 ng/mL
Serum LH ng/ml ± SEM ([3]; 15 ng/rat sc): 68.0 ± 19 ng/mL
Serum FSH ng/ml ± SEM ([3]; 150 ng/rat sc): 6694 ± 2619 ng/mL
Serum LH ng/ml ± SEM ([3]; 150 ng/rat sc): 118.0 ± 3 ng/mL
+2 hrs LH ± SEM ng/ml serum [3, 13]: 156 ± 7 ng/mL
FSH ± SEM ng/ml serum (+2 hrs) [3, 13]: 2211 ± 160 ng/mL
+3 hrs LH ± SEM ng/ml serum [3, 14]: 104 ± 23 ng/mL
FSH ± SEM ng/ml serum (+3 hrs) [3, 14]: 2376 ± 529 ng/mL
potency compared with LHRH when tested biologically ([3]; summary statement, test not specified): significantly more potent than LHRH itself

CCCNC(=O)[C@@H]1CCCN1C(=O)[C@H](CCCNC(=N)N)NC(=O)[C@H](CC(C)C)NC(=O)[C@@H](Cc1cccnc1)NC(=O)[C@H](Cc1ccc(O)cc1)NC(=O)[C@H](CO)NC(=O)[C@H](Cc1c[nH]c2ccccc12)NC(=O)[C@H](Cc1c[nH]cn1)NC(=O)[C@@H]1CCC(=O)N1 [Peptide 21435, pyroGlu-His-Trp-Ser-Tyr-D-3-Pal-Leu-Arg-Pro-NHC3 H7]
Serum FSH ng/ml SEM ([3]; 50 ng/rat sc): 395 ± 116 ng/mL
Serum LH ng/ml SEM ([3]; 50 ng/rat sc): 0.2 ± 0.1 ng/mL
Serum FSH ng/ml SEM ([3]; 150 ng/rat sc): 429 ± 132 ng/mL
Serum LH ng/ml SEM ([3]; 150 ng/rat sc): 2 ± 1 ng/mL
